Reference: article PMC10710507 (Nature Communications, 2023)
These are yes or no findings as the source states them, for the method shown. For some assays here: Binding seen in cells or lysates may run through a third protein. Some binding calls cover weakened binding; strength is not graded here.

Sequences of proteins named here, by UniProt entry; tags and fusion partners are left off.
UniProt P20789: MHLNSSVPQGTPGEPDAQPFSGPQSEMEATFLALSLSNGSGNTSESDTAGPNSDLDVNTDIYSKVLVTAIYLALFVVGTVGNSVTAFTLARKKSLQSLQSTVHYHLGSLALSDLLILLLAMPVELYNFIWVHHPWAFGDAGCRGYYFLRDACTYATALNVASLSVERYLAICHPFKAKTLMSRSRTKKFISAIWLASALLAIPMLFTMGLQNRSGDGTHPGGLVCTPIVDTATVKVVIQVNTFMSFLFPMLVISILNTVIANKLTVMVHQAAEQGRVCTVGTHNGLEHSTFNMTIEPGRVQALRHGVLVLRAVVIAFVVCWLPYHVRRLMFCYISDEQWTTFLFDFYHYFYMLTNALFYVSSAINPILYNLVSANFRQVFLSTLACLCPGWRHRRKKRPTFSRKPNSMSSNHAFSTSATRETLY
UniProt P32121: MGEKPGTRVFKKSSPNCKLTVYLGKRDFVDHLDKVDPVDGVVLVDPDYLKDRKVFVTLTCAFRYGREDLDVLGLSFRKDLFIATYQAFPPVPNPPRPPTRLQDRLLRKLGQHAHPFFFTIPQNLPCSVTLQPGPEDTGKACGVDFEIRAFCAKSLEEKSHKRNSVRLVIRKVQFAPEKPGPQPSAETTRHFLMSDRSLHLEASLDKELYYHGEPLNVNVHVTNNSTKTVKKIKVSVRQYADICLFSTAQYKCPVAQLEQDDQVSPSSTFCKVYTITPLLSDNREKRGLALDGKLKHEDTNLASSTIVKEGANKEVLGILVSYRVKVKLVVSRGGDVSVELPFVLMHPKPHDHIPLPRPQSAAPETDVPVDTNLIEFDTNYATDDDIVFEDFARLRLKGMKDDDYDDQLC

Assays:
[1] = biological target: HA-FLAG-wt-rNTS1-nLuc (rat) (UniProt P20789); assay: FRET or BRET; HEK293T co-transfected with HA-FLAG-wt-rNTS1-nLuc and human β-arrestin-2-Venus; BRET ratio (Venus/nLuc) over time after addition of ligand, 37 C
[2] = biological target: wt-rNTS1 (wild-type rat neurotensin receptor 1) on HEK293F cells (rat) (UniProt P20789); assay: flow cytometry on cells; cell surface competition: 100,000 HEK293F cells stably expressing receptor, unlabelled ligand varied against 5 nM Cy5-NT8-13, 1 h at room temperature, mCherry-positive single cells, One site - Fit Ki; only the binder purified

binding [1] | binding [2] | Molecule
binds | – | human β-arrestin-2-Venus (from UniProt P32121 1-409)
– | binds | RRPYIL (Cy5 (position not given)) [Cy5-NT8-13]
